In PMC4585930 one finds binding data, which are given here for two molecules.

By UniProt entry, the sequences of proteins in these tests, tags left out.
UniProt P34147: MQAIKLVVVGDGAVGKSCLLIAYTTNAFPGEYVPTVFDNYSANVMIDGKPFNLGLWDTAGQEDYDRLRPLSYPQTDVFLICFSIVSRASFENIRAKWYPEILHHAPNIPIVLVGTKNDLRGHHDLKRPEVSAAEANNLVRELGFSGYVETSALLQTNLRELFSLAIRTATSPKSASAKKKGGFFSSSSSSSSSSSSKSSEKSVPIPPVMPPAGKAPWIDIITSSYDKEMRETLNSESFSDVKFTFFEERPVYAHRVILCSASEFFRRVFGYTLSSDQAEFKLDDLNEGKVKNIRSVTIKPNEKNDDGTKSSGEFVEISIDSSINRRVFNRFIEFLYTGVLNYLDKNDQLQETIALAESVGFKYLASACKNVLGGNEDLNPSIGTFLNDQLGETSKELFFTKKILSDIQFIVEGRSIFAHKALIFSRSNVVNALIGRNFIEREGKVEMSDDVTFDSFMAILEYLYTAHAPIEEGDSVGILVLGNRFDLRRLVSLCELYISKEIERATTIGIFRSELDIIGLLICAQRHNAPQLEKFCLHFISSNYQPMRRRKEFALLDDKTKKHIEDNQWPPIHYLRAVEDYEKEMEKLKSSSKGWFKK

Test [1] addresses GST-Rac1a (D. discoideum) (UniProt P34144). In words: pull-down; GST-Rac proteins (or GST) preloaded with GDP or GTPγS on Glutathione Sepharose 4B beads, incubated with lysates of D. discoideum cells expressing GFP-tagged CRN7 proteins; lysis buffer 25 mM Tris-HCl pH 7.5, 100 mM NaCl, 5 mM MgCl2, 2 mM EGTA, 2 mM DTT, 1% Nonidet P-40; western blot with GFP mAb K3-184-2; only the target purified.

The next test concerns the target GST-RacA (D. discoideum) (UniProt P34147). The description is as above.
Test [2] concerns the target GST-Rac1b (D. discoideum) (UniProt P34145). The description is as above.
Another test addresses T1, GST-RacE (D. discoideum) (UniProt Q23862).
T1 sequence: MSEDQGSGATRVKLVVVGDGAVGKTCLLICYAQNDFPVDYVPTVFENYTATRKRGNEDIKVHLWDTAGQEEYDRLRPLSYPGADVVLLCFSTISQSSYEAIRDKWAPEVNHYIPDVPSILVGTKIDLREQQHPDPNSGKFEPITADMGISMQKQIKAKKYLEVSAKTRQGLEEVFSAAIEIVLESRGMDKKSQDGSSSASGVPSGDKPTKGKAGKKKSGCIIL
Described as above.

For test [3], the target named is T2, GFP-CRN7 WT (D. discoideum) (UniProt Q55E54).
T2 sequence: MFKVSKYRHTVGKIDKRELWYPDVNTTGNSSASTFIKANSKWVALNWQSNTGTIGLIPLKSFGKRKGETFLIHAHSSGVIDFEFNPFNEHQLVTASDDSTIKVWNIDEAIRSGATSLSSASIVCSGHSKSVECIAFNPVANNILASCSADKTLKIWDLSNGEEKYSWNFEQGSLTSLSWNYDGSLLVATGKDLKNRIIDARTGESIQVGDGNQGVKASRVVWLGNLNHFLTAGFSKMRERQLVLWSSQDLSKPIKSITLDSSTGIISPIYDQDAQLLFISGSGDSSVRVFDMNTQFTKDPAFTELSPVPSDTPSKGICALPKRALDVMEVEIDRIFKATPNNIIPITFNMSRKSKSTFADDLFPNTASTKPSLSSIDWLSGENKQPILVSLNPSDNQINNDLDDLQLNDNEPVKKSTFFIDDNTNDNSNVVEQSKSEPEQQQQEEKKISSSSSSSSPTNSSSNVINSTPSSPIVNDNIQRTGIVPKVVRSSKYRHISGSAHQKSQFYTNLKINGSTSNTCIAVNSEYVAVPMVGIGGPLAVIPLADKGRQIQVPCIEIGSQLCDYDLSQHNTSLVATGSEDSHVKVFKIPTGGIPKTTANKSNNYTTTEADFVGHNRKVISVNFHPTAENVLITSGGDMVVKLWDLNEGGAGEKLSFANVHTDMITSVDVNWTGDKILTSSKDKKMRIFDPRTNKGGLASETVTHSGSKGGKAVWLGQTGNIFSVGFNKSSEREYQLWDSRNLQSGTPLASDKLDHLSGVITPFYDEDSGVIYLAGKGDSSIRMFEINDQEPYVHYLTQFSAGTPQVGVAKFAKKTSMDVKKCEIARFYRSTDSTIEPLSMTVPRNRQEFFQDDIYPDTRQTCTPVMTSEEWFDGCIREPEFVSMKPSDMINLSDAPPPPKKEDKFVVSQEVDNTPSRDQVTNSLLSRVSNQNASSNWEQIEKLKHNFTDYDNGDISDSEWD
Description: co-IP; GFP-CRN7 precipitated with GFP-trap beads from cell lysate, 2 hours at 4 °C; SCAR detected with polyclonal antibodies.

Results are given in words; binding and its absence hold for the method and conditions named. Binding seen in cells or lysates may run through a third protein. Some entries that bind do so weakly or less than the wild type. Tags and fused reporters may be left off the sequences shown.

B1: GFP-CRN7 WT (protein, UniProt Q55E54 1-962)
chain: MFKVSKYRHTVGKIDKRELWYPDVNTTGNSSASTFIKANSKWVALNWQSNTGTIGLIPLKSFGKRKGETFLIHAHSSGVIDFEFNPFNEHQLVTASDDSTIKVWNIDEAIRSGATSLSSASIVCSGHSKSVECIAFNPVANNILASCSADKTLKIWDLSNGEEKYSWNFEQGSLTSLSWNYDGSLLVATGKDLKNRIIDARTGESIQVGDGNQGVKASRVVWLGNLNHFLTAGFSKMRERQLVLWSSQDLSKPIKSITLDSSTGIISPIYDQDAQLLFISGSGDSSVRVFDMNTQFTKDPAFTELSPVPSDTPSKGICALPKRALDVMEVEIDRIFKATPNNIIPITFNMSRKSKSTFADDLFPNTASTKPSLSSIDWLSGENKQPILVSLNPSDNQINNDLDDLQLNDNEPVKKSTFFIDDNTNDNSNVVEQSKSEPEQQQQEEKKISSSSSSSSPTNSSSNVINSTPSSPIVNDNIQRTGIVPKVVRSSKYRHISGSAHQKSQFYTNLKINGSTSNTCIAVNSEYVAVPMVGIGGPLAVIPLADKGRQIQVPCIEIGSQLCDYDLSQHNTSLVATGSEDSHVKVFKIPTGGIPKTTANKSNNYTTTEADFVGHNRKVISVNFHPTAENVLITSGGDMVVKLWDLNEGGAGEKLSFANVHTDMITSVDVNWTGDKILTSSKDKKMRIFDPRTNKGGLASETVTHSGSKGGKAVWLGQTGNIFSVGFNKSSEREYQLWDSRNLQSGTPLASDKLDHLSGVITPFYDEDSGVIYLAGKGDSSIRMFEINDQEPYVHYLTQFSAGTPQVGVAKFAKKTSMDVKKCEIARFYRSTDSTIEPLSMTVPRNRQEFFQDDIYPDTRQTCTPVMTSEEWFDGCIREPEFVSMKPSDMINLSDAPPPPKKEDKFVVSQEVDNTPSRDQVTNSLLSRVSNQNASSNWEQIEKLKHNFTDYDNGDISDSEWD
Consider B1, for which the binding result in test [1] was “binds weakly”; with GST-RacA (D. discoideum), “binds”; in test [2], “binds weakly”; in the test with GST-RacE (D. discoideum), “binds”.

B2: SCAR (protein, UniProt Q54NF8 1-443)
chain: MVLITRYLPSVTDNNQPALEGQSKDQIVDTVITSTTVGIINQLTMLVAHSNSIFTALANDANLVTQRIEKLGSRIRPLIQSIPSIEDYHRNTSIDTMNSKPRAEFHADNSERNQHFTHASIPASINTVYEKCKPPPNLQLLDPYMDDGQKSLKLYTNPDFFMDEWVAEQQKLHEEARQRKRERREARLKKKGEKNEVEVKKVKSVTKVRYDPVTGEKITINIESPHTSSPQIQHQSNNTATPQHTTQHFGTNQYQAPPPPPLSQSSPSQQHSPINSYTPPPPPLNTSTPSPSSSFQGRPPSTGFNTPPPPMSNNNNMPPPPPMQQNGGAANNRLSVHNSAPIVAAPAPPPPPPPPSAPAPPPPPMAKAGGGASDIKPKASGARSDLLSSIMQGMALKPAEERKVAEAPKKEEALNVADILARRIAWAGDSDSSEDESDDSDWD
Consider B2, for which the binding result in test [3] is recorded as “binds weakly”.
